Values of other authors as cited in patent US5446186A, “Structure and synthesis of nitrophenyl-EGTA, a caged calcium, intermediates thereof and a method of producing a high photochemical yield of liberated calcium” (priority 1993, dated 1995).
At least one compound was matched to its structure with a doubt left.

Conditions: reference standard; cited from earlier work

CC(OP(=O)(O)O)c1ccccc1[N+](=O)[O-] (stereo not shown) [caged-Pi, 1-(o-nitrophenyl)-ethyl phosphate, reference compound]
quantum yield of photolysis: 0.54
